According to article PMC5294206:
These are yes or no findings as the source states them, for the method shown. In cells and extracts the contact can be indirect. Some results given as binding are weak or reduced against the parent protein; the word gives no strength. For some assays here: Tags and fused reporters may be left off the sequences shown.

Protein sequences, listed by entry. Tags and fused reporters are not part of them.
UniProt P46940: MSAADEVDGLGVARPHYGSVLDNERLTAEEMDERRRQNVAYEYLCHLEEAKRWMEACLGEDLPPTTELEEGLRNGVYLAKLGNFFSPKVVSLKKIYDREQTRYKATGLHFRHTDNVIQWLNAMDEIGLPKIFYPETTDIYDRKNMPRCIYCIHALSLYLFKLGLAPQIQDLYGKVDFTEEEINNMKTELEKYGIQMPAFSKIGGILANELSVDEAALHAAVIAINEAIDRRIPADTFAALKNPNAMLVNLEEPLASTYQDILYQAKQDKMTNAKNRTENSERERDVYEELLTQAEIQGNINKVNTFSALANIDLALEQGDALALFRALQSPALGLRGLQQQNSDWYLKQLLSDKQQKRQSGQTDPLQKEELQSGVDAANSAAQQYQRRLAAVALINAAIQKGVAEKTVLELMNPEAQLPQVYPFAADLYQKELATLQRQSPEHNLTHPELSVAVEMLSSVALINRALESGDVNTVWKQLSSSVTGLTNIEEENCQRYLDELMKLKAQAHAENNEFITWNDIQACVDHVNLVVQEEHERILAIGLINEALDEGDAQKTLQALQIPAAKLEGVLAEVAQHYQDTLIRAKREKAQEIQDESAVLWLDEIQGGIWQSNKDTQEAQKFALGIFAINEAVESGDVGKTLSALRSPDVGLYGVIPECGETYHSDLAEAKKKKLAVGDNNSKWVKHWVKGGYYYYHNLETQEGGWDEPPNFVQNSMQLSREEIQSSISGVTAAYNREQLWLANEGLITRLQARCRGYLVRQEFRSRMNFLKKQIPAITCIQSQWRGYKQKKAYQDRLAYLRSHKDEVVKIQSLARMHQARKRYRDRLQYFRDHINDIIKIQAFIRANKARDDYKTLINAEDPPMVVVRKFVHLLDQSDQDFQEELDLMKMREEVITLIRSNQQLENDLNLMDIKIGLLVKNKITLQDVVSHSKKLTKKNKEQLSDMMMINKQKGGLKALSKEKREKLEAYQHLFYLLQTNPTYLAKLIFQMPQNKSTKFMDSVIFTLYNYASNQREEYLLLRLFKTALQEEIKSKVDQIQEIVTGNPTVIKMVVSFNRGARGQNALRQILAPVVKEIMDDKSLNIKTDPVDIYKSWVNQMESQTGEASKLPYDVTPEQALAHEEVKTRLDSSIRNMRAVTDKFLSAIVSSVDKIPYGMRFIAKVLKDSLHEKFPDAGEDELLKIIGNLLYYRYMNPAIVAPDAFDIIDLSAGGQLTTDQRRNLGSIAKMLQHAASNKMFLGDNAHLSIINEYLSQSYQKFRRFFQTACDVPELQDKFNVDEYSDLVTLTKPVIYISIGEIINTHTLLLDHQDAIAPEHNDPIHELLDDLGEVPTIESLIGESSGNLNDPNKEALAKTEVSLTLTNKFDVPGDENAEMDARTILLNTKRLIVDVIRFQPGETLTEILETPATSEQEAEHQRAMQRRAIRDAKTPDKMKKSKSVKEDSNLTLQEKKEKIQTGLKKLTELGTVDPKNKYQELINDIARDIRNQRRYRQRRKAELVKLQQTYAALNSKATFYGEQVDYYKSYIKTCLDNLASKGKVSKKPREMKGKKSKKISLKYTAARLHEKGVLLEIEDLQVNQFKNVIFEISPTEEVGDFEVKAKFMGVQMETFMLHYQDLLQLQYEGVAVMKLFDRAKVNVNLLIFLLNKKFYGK
UniProt P07737: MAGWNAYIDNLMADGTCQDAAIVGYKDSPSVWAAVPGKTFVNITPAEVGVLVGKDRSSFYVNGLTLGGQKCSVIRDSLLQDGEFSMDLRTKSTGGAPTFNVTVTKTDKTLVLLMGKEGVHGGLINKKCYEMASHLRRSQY
UniProt Q9Y5S2: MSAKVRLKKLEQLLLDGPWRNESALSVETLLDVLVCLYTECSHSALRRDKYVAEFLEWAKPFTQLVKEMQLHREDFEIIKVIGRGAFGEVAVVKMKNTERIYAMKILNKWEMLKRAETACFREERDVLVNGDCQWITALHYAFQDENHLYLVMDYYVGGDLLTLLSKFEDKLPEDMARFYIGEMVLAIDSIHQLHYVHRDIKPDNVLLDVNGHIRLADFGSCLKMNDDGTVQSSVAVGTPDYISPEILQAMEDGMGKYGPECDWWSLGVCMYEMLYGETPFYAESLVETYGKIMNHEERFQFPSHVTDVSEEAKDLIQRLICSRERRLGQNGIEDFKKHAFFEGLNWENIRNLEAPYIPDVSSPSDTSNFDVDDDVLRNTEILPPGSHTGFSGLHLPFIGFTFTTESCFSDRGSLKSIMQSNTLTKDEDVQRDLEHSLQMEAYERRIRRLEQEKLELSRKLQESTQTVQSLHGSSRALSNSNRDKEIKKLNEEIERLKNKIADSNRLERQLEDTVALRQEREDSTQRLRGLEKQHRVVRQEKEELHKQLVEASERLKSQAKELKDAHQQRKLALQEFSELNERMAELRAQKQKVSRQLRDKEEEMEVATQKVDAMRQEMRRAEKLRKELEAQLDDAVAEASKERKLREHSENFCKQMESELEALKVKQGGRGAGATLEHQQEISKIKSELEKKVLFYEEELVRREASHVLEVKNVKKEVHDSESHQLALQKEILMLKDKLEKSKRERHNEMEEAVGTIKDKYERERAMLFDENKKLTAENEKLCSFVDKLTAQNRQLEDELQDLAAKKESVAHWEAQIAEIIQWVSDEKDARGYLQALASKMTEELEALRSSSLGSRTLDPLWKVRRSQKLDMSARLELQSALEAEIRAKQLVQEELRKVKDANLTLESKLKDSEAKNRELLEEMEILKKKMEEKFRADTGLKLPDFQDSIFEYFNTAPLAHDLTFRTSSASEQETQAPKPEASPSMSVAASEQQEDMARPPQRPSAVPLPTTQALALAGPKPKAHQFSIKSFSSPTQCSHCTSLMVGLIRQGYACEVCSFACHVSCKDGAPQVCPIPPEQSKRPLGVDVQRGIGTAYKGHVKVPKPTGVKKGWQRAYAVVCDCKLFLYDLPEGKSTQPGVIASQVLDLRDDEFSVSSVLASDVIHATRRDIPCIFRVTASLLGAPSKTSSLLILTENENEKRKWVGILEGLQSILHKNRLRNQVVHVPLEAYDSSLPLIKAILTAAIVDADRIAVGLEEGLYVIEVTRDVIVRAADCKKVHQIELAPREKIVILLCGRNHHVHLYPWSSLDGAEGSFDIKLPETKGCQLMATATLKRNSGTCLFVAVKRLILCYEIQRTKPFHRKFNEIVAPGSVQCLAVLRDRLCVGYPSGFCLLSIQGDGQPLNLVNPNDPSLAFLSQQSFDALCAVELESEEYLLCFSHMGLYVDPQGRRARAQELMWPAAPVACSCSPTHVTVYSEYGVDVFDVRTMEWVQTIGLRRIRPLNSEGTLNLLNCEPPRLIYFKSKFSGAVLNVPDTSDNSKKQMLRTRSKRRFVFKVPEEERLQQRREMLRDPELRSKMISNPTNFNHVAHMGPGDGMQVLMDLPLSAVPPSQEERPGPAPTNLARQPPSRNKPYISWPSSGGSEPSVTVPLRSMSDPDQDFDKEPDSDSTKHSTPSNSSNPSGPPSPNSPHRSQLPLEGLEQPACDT

T1: endogenous p130Cas (human (endogenous in HUVEC)) (UniProt P56945)
T1 sequence: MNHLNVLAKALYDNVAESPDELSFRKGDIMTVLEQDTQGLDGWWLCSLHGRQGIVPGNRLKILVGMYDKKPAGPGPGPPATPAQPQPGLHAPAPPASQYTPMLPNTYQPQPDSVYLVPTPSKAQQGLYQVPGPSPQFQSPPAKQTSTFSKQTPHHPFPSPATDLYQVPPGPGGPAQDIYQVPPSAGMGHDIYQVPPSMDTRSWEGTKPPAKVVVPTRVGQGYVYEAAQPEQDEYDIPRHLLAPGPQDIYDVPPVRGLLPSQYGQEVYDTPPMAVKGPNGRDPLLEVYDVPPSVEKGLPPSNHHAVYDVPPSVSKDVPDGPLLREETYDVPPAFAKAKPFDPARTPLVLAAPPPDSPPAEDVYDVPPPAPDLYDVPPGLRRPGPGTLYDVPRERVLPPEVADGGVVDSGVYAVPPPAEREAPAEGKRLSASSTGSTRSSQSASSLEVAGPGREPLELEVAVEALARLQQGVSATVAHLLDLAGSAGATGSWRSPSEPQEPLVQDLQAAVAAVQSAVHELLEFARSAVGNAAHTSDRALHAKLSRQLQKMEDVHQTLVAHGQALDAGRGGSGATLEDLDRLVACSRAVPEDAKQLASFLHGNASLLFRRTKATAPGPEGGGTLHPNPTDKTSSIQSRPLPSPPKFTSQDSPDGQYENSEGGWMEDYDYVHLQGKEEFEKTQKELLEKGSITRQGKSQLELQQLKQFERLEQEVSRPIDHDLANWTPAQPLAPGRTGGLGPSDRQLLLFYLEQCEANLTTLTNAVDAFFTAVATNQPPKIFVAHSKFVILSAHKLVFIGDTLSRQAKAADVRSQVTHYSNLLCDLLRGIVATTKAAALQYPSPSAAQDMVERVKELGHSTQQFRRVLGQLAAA

T2: wild-type (WT) p130Cas, overexpressed from adenovirus (Ad.p130Cas) (UniProt P56945)
T2 sequence: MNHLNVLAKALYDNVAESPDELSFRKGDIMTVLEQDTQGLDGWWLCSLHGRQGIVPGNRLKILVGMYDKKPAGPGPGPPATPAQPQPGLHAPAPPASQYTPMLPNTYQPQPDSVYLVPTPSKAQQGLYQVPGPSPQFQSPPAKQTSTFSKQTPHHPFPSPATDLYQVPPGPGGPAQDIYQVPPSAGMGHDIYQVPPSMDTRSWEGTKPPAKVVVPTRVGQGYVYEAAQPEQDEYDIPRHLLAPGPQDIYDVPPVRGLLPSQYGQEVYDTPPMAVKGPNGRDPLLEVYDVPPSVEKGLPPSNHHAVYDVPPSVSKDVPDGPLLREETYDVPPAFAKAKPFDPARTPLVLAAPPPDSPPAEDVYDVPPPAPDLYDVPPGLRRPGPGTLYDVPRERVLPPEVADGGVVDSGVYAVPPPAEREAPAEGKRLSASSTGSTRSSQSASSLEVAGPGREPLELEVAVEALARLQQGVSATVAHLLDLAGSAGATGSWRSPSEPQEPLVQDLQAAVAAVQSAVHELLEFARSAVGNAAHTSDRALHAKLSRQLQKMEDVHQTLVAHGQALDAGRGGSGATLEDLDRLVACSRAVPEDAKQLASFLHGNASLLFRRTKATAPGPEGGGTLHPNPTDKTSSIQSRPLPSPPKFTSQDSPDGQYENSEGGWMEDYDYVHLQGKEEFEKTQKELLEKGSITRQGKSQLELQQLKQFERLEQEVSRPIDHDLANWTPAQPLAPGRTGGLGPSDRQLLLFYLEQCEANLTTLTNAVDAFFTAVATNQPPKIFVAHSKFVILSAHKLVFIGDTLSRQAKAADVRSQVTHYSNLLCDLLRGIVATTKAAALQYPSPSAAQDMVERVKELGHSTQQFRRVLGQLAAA


Tests used:
[1] = target: T1, endogenous p130Cas (human (endogenous in HUVEC)); assay: co-IP; endogenous p130Cas immunoprecipitated with anti-p130Cas antibody from HUVEC lysates, with or without VEGF (also after siNRP1 or siScr); immunoblot for the partners
[2] = target: T2, wild-type (WT) p130Cas, overexpressed from adenovirus (Ad.p130Cas); assay: co-IP; HUVECs infected with Ad.p130CasWT or Ad.p130Cas15F for 48 h, with or without 25 ng/ml VEGF for 30 min; immunoprecipitated with anti-p130Cas antibody, immunoblotted for p130Cas and IQGAP1
[3] = target: recombinant full-length IQGAP1 protein fused to GST (UniProt P46940); assay: pull-down; recombinant GST-IQGAP1 (full length) incubated with HUVEC lysates, cells with or without VEGF treatment; p130Cas detected; only the target purified

Row | binding [1] | binding [2] | binding [3] | Molecule
1 | binds |  |  | Profilin-1 (from UniProt P07737 1-140)
2 | binds |  |  | CDC42 binding protein kinase beta (CDC42BPB or myotonic dystrophy-related CDC42-binding kinase (MRCKβ)) (from UniProt Q9Y5S2 1-1711)

The remaining lines, values behind:

Row | Molecule | binding [1] | binding [2] | binding [3]
3 | IQGAP1, GTPase-binding scaffold protein, endogenous (from UniProt P46940 1-1657) | binds | binds | 
4 | endogenous p130Cas (protein, UniProt P56945 1-870) MNHLNVLAKALYDNVAESPDELSFRKGDIMTVLEQDTQGLDGWWLCSLHGRQGIVPGNRLKILVGMYDKKPAGPGPGPPATPAQPQPGLHAPAPPASQYTPMLPNTYQPQPDSVYLVPTPSKAQQGLYQVPGPSPQFQSPPAKQTSTFSKQTPHHPFPSPATDLYQVPPGPGGPAQDIYQVPPSAGMGHDIYQVPPSMDTRSWEGTKPPAKVVVPTRVGQGYVYEAAQPEQDEYDIPRHLLAPGPQDIYDVPPVRGLLPSQYGQEVYDTPPMAVKGPNGRDPLLEVYDVPPSVEKGLPPSNHHAVYDVPPSVSKDVPDGPLLREETYDVPPAFAKAKPFDPARTPLVLAAPPPDSPPAEDVYDVPPPAPDLYDVPPGLRRPGPGTLYDVPRERVLPPEVADGGVVDSGVYAVPPPAEREAPAEGKRLSASSTGSTRSSQSASSLEVAGPGREPLELEVAVEALARLQQGVSATVAHLLDLAGSAGATGSWRSPSEPQEPLVQDLQAAVAAVQSAVHELLEFARSAVGNAAHTSDRALHAKLSRQLQKMEDVHQTLVAHGQALDAGRGGSGATLEDLDRLVACSRAVPEDAKQLASFLHGNASLLFRRTKATAPGPEGGGTLHPNPTDKTSSIQSRPLPSPPKFTSQDSPDGQYENSEGGWMEDYDYVHLQGKEEFEKTQKELLEKGSITRQGKSQLELQQLKQFERLEQEVSRPIDHDLANWTPAQPLAPGRTGGLGPSDRQLLLFYLEQCEANLTTLTNAVDAFFTAVATNQPPKIFVAHSKFVILSAHKLVFIGDTLSRQAKAADVRSQVTHYSNLLCDLLRGIVATTKAAALQYPSPSAAQDMVERVKELGHSTQQFRRVLGQLAAA |  |  | binds
